From paper PMC11304246
These are yes or no findings as the source states them, for the method shown. Binding seen in cells or lysates may run through a third protein. Some results given as binding are weak or reduced against the parent protein; the word gives no strength. Sequences can lack the tags named with a protein.

The chains behind the UniProt entries cited, without tags or fusion partners.
UniProt P11940: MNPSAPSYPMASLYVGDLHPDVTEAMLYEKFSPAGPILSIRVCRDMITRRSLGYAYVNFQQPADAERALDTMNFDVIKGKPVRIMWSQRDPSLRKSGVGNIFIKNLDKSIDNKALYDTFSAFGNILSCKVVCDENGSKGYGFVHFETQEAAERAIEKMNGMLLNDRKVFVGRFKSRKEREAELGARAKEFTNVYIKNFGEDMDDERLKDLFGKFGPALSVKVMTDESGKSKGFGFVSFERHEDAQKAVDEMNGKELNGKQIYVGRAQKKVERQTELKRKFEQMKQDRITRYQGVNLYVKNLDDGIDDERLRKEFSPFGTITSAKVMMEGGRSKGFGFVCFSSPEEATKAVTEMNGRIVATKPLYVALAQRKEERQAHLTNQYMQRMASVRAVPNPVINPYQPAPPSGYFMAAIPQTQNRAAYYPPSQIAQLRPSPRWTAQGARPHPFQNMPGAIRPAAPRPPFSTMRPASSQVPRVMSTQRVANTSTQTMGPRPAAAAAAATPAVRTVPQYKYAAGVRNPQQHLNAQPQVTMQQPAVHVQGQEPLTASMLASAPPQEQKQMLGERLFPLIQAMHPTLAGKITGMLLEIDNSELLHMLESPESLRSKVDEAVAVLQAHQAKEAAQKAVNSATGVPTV

Experiments:
[1] = biological target: T1, DAZ1-FLAG-3×HA (deleted in azoospermia 1), stably overexpressed in DAOY cells (human) (UniProt Q9NQZ3); experiment: co-IP; anti-DAZ antibodies and Protein A/G magnetic beads, lysate of DAZ-overexpressing DAOY cells (10 mM Tris-HCl pH 7.5, 1 mM EDTA, 150 mM NaCl, 0.1% Triton X-100), 4 °C; with or without RNase A; blots for CCT3 and PABPC1
T1 sequence: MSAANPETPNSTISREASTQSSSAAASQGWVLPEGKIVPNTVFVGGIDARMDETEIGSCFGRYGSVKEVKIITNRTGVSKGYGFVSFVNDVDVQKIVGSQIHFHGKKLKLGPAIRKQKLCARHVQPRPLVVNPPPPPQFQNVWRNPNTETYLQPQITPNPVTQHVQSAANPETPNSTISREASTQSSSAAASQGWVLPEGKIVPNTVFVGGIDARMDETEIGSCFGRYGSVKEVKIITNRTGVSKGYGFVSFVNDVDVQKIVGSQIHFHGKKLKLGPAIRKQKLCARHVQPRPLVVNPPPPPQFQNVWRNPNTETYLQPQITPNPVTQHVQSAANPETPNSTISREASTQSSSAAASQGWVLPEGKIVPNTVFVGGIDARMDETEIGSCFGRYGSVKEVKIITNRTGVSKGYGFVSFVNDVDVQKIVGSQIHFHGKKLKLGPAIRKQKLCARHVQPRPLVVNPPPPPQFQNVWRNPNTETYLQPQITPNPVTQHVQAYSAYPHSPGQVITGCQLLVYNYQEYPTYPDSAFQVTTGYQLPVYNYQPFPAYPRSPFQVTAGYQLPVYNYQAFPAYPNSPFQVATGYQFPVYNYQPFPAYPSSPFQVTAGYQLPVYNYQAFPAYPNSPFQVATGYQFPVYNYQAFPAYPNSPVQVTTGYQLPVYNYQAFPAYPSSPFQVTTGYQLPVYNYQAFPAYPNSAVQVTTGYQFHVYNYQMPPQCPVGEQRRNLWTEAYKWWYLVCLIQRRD

[2] = biological target: T2, DAZ1-FLAG (1-744 amino acids), in HEK 293T cells (human) (UniProt Q9NQZ3); experiment: co-IP; agarose beads conjugated with FLAG, lysates of HEK 293T cells transfected with DAZ1-FLAG or its truncations; with or without RNase; blots for PABPC1 and CCT3
T2 sequence: T1 sequence

[3] = biological target: T3, RRM domain of DAZ1 (1-496 amino acids)-FLAG, in HEK 293T cells (human) (UniProt Q9NQZ3); experiment: as above
T3 sequence: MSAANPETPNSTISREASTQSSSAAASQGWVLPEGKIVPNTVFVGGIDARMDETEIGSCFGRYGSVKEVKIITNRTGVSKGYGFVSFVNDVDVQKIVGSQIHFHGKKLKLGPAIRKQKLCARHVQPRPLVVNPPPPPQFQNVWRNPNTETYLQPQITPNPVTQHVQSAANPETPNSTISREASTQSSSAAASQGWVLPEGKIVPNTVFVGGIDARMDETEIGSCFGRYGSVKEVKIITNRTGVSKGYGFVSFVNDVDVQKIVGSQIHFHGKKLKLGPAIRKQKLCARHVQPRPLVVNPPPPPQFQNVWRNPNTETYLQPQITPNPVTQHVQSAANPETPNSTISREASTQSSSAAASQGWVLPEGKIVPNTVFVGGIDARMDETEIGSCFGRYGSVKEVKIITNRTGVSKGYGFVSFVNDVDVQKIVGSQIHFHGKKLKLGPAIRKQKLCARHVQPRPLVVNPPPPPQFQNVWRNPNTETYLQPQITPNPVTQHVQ

[4] = biological target: T4, DAZ repeat region of DAZ1 (497-744 amino acids)-FLAG, in HEK 293T cells (human) (UniProt Q9NQZ3); experiment: as above
T4 sequence: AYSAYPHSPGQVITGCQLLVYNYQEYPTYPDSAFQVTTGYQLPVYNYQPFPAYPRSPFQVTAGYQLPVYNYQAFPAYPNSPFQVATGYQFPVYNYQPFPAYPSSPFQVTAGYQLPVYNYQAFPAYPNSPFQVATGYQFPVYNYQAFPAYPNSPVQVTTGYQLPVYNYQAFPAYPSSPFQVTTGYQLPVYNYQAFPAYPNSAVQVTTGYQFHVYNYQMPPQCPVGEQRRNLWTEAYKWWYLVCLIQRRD

Substance: PABPC1 (Poly A Binding Protein Cytoplasmic 1), in DAOY cells (from UniProt P11940 1-636)
- binding [1]: binds

Substance: PABPC1, in HEK 293T cells (from UniProt P11940 1-636)
- binding [2]: binds
- binding [3]: no binding
- binding [4]: binds
